These are yes or no findings as the source states them, for the method shown. Some binding calls cover weakened binding; strength is not graded here.
T1: AtpI, CF0 subunit a of chloroplast ATP synthase (Arabidopsis thaliana (endogenous in thylakoids)), P56758
T1 chain: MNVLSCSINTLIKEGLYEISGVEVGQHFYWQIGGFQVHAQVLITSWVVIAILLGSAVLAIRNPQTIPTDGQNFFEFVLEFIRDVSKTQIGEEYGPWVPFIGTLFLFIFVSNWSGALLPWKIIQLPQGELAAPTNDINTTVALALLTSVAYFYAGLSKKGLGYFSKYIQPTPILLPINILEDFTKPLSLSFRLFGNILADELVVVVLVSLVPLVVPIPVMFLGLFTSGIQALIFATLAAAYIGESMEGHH

Amino acid sequences for entries named in this document (tags omitted). A change or cut given only in a name is not applied to a line headed by its entry.
UniProt P56757: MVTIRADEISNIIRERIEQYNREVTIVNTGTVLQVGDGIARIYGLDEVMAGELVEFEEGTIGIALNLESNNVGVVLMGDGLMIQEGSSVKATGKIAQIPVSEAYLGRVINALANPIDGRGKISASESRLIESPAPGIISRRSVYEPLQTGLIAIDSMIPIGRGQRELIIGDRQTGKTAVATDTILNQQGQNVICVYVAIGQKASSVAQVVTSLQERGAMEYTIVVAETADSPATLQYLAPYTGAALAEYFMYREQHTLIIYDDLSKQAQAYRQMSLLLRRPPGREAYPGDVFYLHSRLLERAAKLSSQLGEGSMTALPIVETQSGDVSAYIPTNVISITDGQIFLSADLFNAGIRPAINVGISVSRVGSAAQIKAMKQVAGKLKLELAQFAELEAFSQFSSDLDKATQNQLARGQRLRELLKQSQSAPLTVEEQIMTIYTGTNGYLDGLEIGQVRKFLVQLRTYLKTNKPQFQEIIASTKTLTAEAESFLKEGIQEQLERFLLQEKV
UniProt P19366: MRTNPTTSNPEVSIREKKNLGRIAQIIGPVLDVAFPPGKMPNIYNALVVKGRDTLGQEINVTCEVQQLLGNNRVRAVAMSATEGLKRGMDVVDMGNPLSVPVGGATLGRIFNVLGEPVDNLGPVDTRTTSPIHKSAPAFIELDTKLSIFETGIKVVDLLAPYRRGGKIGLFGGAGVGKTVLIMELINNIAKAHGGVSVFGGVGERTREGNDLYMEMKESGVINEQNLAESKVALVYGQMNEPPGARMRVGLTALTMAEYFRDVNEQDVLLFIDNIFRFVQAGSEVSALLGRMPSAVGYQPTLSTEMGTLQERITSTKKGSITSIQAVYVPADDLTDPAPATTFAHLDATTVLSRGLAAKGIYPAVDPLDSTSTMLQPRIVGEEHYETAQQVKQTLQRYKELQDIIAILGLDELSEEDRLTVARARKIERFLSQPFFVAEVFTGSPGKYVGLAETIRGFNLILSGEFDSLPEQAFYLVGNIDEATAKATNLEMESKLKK
UniProt Q01908: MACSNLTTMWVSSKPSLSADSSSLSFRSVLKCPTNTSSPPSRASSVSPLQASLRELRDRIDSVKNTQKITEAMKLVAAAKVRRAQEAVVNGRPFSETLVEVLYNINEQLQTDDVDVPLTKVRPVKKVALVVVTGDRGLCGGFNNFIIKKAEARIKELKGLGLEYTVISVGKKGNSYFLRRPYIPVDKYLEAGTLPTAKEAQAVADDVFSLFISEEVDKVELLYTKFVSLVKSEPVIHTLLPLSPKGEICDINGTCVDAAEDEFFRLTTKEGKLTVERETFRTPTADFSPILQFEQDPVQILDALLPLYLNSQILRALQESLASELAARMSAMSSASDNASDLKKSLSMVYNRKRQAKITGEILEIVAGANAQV
UniProt Q9SSS9: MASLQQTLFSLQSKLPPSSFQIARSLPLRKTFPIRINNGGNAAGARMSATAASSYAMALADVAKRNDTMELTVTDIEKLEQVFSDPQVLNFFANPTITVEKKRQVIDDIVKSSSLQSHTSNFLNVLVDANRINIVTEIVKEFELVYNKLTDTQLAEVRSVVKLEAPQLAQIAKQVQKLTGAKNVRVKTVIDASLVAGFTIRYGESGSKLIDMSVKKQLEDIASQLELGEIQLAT
UniProt P09468: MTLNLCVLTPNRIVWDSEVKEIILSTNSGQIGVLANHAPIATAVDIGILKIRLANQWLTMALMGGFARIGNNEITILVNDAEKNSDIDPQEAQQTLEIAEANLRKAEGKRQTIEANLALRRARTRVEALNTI


How the values were obtained:
[1] = biological target: T2, CF1 sub-complex of chloroplast ATP synthase (CF1-containing complex of ~300 kDa on BN-PAGE) (Arabidopsis thaliana (endogenous in thylakoids)) (UniProt P56757+P19366+Q01908+Q9SSS9+P09468); test: native gel or EMSA; BN-PAGE (5–13.5% gradient, 4°C) of thylakoid membranes solubilised with n-dodecyl β-D maltoside; co-migration read by immunoblots with antibodies against D1, CF1 and CGL160
[2] = biological target: T2, CF1 sub-complex of chloroplast ATP synthase (CF1-containing complex of ~300 kDa on BN-PAGE) (Arabidopsis thaliana (endogenous in thylakoids)); test: native gel or EMSA; 2D BN/SDS-PAGE: BN-PAGE lanes of solubilised thylakoids denatured and run on SDS-PAGE (12%, 6 M urea); co-migration read by immunoblots for CGL160 and individual ATP synthase subunits
[3] = biological target: T1, AtpI, CF0 subunit a of chloroplast ATP …; test: as above; conditions: remark: other sources report otherwise

Row | binding [1] | binding [2] | binding [3] | Binder
1 | binds | binds |  | CGL160 (Conserved Green Lineage 160), Arabidopsis thaliana (protein, UniProt O82279 47-350) GEYGGPPTTTKLRKYWGGEKEDPITSTDLIWNRDFMDQMKKLFDDPNDSSLDPSPSKEKSSGFLSFSRVMSLDSMDVDLSKELASSSKSVVKNRLDTSKSEAKKQMSKAIVSPKWKLAPTRREQEKWDRATKAATGGSDVMFRELRRPRGDPEVQAAKDREQYFKLKNKIQVLTLGIGGVGLVSAYISYTPEIALSFGAGLLGSLAYMRMLGNSVDAMADGARGVAKGAANQPRLLVPVVLVMIFNRWNAILVPEYGFMHLELIPMLVGFFTYKIATFFQAIEEAISITTQKPESISPDTQASD
2 |  |  | no binding | CGL160 (Conserved Green Lineage 160), Arabidopsis thaliana, O82279 47-350 (protein) GEYGGPPTTTKLRKYWGGEKEDPITSTDLIWNRDFMDQMKKLFDDPNDSSLDPSPSKEKSSGFLSFSRVMSLDSMDVDLSKELASSSKSVVKNRLDTSKSEAKKQMSKAIVSPKWKLAPTRREQEKWDRATKAATGGSDVMFRELRRPRGDPEVQAAKDREQYFKLKNKIQVLTLGIGGVGLVSAYISYTPEIALSFGAGLLGSLAYMRMLGNSVDAMADGARGVAKGAANQPRLLVPVVLVMIFNRWNAILVPEYGFMHLELIPMLVGFFTYKIATFFQAIEEAISITTQKPESISPDTQASD
